# According to the supplement of paper PMC10849652:
# The chains behind the UniProt entries cited, without tags or fusion partners. Where a name states a change or a piece, a line headed by the entry shows the natural chain unless it says otherwise.
# UniProt P49643: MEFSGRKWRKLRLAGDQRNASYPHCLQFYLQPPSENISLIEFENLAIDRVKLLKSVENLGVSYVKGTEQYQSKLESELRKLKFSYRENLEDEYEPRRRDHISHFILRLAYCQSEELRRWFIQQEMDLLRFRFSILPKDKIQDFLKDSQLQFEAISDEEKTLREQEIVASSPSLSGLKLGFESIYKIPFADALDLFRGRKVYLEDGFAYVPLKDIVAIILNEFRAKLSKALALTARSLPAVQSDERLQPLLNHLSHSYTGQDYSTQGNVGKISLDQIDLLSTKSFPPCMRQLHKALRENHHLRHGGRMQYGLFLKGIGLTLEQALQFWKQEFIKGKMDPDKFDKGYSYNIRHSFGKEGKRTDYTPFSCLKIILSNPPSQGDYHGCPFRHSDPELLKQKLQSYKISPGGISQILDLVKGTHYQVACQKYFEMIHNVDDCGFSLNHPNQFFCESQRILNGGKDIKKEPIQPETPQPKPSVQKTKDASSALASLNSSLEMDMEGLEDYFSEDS
# UniProt O43395: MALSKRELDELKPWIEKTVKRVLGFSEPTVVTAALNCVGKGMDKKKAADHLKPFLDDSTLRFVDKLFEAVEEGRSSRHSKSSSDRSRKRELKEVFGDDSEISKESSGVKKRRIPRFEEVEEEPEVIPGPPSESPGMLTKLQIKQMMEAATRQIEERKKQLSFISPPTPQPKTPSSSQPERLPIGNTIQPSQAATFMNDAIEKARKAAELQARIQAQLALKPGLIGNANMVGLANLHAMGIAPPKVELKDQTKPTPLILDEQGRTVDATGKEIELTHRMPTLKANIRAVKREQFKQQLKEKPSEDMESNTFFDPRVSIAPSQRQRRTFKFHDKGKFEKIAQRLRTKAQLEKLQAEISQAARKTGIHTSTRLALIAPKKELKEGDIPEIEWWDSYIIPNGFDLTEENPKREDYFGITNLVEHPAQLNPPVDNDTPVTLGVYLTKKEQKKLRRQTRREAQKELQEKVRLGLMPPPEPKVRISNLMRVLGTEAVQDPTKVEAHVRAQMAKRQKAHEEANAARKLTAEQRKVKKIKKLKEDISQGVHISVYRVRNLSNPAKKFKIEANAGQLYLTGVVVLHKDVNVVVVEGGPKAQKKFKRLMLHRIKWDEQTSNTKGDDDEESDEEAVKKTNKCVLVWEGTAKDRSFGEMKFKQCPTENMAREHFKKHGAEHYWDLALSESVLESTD
# UniProt O43447: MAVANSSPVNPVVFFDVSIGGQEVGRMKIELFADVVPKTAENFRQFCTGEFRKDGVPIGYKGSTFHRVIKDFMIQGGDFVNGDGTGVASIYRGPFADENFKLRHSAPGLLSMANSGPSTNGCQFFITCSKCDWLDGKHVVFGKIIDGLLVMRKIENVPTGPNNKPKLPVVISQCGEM
# UniProt Q92733: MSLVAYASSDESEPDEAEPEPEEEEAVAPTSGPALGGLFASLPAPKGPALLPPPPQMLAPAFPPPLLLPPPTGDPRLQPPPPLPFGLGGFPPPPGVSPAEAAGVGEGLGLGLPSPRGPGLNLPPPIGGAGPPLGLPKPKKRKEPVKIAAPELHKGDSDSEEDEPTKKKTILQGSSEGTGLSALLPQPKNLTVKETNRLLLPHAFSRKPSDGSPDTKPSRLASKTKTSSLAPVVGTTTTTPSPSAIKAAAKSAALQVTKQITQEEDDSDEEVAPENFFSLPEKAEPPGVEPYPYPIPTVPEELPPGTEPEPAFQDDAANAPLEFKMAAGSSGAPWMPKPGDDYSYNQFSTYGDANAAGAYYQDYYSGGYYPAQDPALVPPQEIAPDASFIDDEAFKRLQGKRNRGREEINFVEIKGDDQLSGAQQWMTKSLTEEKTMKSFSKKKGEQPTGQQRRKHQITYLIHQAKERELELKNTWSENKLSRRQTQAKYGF
# UniProt Q9BZL4: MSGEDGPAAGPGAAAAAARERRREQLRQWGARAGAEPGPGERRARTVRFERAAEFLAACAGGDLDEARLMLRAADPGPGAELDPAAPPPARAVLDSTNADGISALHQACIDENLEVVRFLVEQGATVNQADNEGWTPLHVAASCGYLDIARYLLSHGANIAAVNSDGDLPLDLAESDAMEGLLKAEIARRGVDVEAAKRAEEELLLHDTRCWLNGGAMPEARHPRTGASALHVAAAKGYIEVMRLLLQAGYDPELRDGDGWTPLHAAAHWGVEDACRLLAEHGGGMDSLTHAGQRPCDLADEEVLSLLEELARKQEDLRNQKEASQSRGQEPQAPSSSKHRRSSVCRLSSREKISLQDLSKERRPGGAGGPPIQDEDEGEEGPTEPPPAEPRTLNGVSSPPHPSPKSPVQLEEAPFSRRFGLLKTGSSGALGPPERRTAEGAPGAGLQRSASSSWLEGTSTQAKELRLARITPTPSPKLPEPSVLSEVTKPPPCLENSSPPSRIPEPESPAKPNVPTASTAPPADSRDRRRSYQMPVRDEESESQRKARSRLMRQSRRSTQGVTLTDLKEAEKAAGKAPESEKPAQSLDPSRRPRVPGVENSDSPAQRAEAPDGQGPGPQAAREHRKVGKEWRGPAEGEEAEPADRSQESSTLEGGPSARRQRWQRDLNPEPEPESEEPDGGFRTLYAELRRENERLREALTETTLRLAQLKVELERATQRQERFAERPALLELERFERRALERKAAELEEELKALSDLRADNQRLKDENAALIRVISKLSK
# UniProt Q8TF05: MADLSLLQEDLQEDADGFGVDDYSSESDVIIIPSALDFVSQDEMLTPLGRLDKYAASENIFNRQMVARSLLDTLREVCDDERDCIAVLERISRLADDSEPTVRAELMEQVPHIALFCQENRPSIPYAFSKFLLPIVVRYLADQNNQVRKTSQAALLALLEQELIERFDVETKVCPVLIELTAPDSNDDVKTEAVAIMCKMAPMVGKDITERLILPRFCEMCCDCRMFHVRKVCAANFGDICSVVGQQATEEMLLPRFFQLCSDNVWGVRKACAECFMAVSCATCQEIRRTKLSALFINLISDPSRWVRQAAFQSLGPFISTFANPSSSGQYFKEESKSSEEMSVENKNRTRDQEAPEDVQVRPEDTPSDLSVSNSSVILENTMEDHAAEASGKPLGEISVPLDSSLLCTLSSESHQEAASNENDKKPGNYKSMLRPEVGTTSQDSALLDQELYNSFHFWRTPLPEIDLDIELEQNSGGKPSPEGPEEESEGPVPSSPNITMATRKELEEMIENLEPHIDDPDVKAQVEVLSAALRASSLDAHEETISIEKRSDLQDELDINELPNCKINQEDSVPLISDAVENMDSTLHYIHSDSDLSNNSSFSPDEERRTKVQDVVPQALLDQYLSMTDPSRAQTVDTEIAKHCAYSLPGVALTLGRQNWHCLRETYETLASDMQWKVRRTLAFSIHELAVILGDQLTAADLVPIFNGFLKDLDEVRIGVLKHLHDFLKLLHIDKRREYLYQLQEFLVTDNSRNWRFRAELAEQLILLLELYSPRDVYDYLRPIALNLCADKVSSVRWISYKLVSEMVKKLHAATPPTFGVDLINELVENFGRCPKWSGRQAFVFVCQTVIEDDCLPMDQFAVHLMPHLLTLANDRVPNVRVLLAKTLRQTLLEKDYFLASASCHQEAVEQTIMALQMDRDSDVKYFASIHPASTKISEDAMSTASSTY
# UniProt Q9NY27: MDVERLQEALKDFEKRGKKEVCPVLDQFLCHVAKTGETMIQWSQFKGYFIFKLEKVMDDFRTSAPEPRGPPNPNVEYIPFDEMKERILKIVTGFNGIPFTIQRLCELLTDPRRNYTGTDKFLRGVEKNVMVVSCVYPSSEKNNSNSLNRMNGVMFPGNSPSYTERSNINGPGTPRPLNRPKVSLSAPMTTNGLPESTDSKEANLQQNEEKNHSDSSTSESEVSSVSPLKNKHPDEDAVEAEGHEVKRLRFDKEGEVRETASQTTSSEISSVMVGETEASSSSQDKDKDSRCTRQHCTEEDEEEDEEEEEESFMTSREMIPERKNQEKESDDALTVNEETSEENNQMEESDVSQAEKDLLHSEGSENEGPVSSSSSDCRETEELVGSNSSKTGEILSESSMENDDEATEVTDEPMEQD
# UniProt O60437: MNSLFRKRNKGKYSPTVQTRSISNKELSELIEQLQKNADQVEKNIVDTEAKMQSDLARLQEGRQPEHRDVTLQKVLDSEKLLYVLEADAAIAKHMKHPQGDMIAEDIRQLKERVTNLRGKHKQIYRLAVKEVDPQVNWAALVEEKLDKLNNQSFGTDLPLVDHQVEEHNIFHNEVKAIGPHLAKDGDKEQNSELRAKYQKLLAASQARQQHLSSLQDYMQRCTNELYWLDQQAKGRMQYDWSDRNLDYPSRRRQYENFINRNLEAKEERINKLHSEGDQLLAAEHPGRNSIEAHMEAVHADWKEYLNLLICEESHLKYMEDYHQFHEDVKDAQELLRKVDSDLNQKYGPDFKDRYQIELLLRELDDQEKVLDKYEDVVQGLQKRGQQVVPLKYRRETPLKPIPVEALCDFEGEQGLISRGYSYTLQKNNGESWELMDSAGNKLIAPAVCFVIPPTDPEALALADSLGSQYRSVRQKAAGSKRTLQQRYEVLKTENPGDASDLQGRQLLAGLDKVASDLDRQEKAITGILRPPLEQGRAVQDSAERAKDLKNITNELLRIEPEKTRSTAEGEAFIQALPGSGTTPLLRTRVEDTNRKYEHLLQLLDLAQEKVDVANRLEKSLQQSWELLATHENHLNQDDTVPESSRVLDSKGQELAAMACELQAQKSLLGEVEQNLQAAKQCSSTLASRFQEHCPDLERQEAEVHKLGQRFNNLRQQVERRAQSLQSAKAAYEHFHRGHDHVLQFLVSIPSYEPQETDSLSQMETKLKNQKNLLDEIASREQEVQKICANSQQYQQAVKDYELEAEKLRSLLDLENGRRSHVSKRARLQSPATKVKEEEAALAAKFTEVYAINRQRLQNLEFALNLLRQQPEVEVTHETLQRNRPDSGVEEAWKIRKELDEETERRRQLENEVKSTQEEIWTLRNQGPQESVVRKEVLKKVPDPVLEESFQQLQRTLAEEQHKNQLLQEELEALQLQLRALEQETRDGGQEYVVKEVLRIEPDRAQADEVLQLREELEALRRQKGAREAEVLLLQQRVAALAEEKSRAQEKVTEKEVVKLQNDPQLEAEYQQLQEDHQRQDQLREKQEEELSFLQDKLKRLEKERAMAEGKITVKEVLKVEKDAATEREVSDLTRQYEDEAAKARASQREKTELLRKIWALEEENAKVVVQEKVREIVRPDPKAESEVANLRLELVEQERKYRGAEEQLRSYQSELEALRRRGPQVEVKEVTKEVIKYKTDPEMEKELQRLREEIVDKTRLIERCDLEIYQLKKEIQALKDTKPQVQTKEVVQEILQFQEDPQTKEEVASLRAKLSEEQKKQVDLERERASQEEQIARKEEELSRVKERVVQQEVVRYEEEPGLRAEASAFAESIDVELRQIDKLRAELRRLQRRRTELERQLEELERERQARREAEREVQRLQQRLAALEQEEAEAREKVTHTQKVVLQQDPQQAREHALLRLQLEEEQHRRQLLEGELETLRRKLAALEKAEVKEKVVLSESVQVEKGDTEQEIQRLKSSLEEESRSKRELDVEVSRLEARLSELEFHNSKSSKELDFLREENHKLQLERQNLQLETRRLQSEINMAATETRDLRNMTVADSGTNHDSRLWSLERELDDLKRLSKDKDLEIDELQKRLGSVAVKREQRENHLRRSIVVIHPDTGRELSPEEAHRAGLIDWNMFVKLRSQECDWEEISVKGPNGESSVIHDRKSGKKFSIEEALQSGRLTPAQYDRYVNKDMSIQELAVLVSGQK
# UniProt Q13427: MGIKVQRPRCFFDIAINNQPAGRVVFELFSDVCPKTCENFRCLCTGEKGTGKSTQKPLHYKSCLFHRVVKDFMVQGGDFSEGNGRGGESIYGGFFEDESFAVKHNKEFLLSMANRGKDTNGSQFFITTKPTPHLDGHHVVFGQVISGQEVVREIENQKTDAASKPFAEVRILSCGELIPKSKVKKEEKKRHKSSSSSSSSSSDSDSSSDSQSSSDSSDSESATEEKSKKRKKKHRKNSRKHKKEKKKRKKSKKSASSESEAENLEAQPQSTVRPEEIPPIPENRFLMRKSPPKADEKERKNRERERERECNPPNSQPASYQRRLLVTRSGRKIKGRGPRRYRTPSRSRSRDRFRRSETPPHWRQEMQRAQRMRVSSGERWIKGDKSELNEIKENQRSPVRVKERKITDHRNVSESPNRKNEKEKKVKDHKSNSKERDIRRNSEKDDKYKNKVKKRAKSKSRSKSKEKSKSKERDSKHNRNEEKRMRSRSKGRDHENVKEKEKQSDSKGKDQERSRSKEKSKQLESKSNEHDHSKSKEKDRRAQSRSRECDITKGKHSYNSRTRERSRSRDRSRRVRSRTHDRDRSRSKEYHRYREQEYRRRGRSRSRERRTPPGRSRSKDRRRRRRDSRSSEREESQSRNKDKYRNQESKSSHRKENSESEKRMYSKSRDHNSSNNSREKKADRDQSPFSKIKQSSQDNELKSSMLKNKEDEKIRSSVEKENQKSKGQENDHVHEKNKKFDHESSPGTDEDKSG
# Some of the results follow.
# Assays:
# Assay in all cases: log2 fold change, soluble protein after heating vs DMSO (PISA); higher = thermal stabilisation; K562 lysate, 10 uM; active = over 0.2 and 3.5 SD of the protein, either way, in both replicates (recomputed)
# [1] = compound: Cc1cn(-c2cc(NC(=O)c3ccc(C)c(Nc4nccc(-c5cccnc5)n4)c3)cc(C(F)(F)F)c2)cn1 [nilotinib]
# Outline: (§1)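 A 30 min treatment with 10 μM compound was applied to crude K562 extract at 1 mg/mL protein in PBS pH 7.4 with 1 mM MgCl2. Heating for 3 min spanned 48°C-58°C, after which aliquots were pooled, adjusted to 0.5% NP-40 at 4°C and spun at 21,000xg for 90 min. TMTpro 16plex LC-MS/MS of the supernatant, with channel sums equalised, gave values recorded as log-two fold change in thermal stability against solvent controls, from duplicates.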
# [2] = compound: Cc1nc(Nc2n[nH]c3c2CN(C(=O)N[C@H](CN(C)C)c2ccccc2)C3(C)C)c2sccc2n1
# Outline: as §1
# [3] = compound: Cc1nc(Nc2ncc(C(=O)Nc3c(C)cccc3Cl)s2)cc(N2CCN(CCO)CC2)n1 [dasatinib]
# Outline: as §1
# [4] = compound: Cc1ncc(-c2ccnc(Nc3ccc(S(C)(=O)=O)cc3)n2)n1C(C)C
# Outline: as §1
# [5] = compound: Cn1cc(-c2ccc3c(c2)CCN3C(=O)Cc2cccc(C(F)(F)F)c2)c2c(N)ncnc21
# Outline: as §1
# [6] = compound: Cn1cc(CNCC2CCN(c3ncc(C(=O)NO)cn3)CC2)c2ccccc21 [quisinostat]
# Outline: as §1
# [7] = compound: Cn1cncc1[C@@](N)(c1ccc(Cl)cc1)c1ccc2c(c1)c(-c1cccc(Cl)c1)cc(=O)n2C [tipifarnib]
# Outline: as §1
# [8] = compound: NC(=O)Nc1cc(-c2cccc(F)c2)sc1C(=O)N[C@H]1CCCNC1
# Outline: as §1
# [9] = compound: NC(=O)c1cnc(N[C@@H]2CCCC[C@@H]2N)nc1Nc1cccc(-n2nccn2)c1
# Outline: as §1
# [10] = compound: NC1(c2ccc(-c3nc4ccn5c(=O)[nH]nc5c4cc3-c3ccccc3)cc2)CCC1
# Outline: as §1
Target,log2 fold change [1],log2 fold change [2],log2 fold change [3],log2 fold change [4],log2 fold change [5],log2 fold change [6],log2 fold change [7],log2 fold change [8],log2 fold change [9],log2 fold change [10]
PRPF31 (UniProt Q8WWY3),inactive: 0.004,inactive: -0.006,inactive: -0.01,inactive: -0.022,inactive: 0.024,inactive: -0.031,inactive: 0.022,inactive: 0.021,inactive: -0.016,inactive: -0.001
PRMT3 (UniProt O60678),inactive: 0.012,inactive: -0.029,inactive: -0.017,inactive: -0.008,inactive: -0.052,inactive: -0.056,inactive: 0.011,inactive: 0.016,inactive: -0.006,inactive: 0.012
PPP4R4 (UniProt Q6NUP7),inactive: 0.103,inactive: -0.088,inactive: 0.055,inactive: 0.276,inactive: -0.12,inactive: -0.279,inactive: 0.012,inactive: 0.171,inactive: 0.005,inactive: -0.189
PRIM2 (UniProt P49643),inactive: 0.052,inactive: 0.007,inactive: -0.038,inactive: -0.012,inactive: 0.02,inactive: -0.027,inactive: -0.037,inactive: 0.018,inactive: -0.001,inactive: -0.021
PPT2 isoform 3 (UniProt Q9UMR5),inactive: 0.01,inactive: -0.019,inactive: 0.006,inactive: -0.019,inactive: 0.025,inactive: -0.004,inactive: -0.025,inactive: 0.032,inactive: 0.002,inactive: 0.02
PPOX (UniProt P50336),inactive: 0.227,inactive: -0.001,inactive: 0.086,inactive: 0.054,inactive: -0.004,inactive: 0.129,inactive: -0.012,inactive: -0.019,inactive: -0.008,inactive: -0.036
PRPF3 (UniProt O43395),inactive: -0.003,inactive: 0.037,inactive: -0.003,inactive: 0.012,inactive: 0.011,inactive: 0.019,inactive: 0.004,inactive: 0.012,inactive: -0.004,inactive: 0.006
PRG4 (UniProt Q92954),inactive: -0.092,inactive: 0.196,inactive: -0.028,inactive: 0.196,inactive: 0.024,inactive: -0.285,inactive: 0.17,inactive: 0.057,inactive: -0.09,–
PPIH (UniProt O43447),inactive: 0.009,inactive: -0.013,inactive: 0.003,inactive: -0.026,inactive: 0.006,inactive: -0.043,inactive: 0,inactive: -0.022,inactive: 0.026,inactive: 0.021
PROS1 (UniProt P07225),inactive: -0.022,inactive: 0.037,inactive: 0.037,inactive: -0.011,inactive: 0.037,inactive: -0.089,inactive: -0.041,inactive: 0.022,inactive: 0.009,inactive: -0.007
PPP5C (UniProt P53041),inactive: 0.026,inactive: -0.016,inactive: 0.017,inactive: 0.008,inactive: 0.005,inactive: 0.001,inactive: 0.004,inactive: -0.023,inactive: -0.004,inactive: -0.017
PPP2R5A (UniProt Q15172),inactive: -0.011,inactive: -0.036,inactive: -0.104,inactive: 0.04,inactive: 0.046,inactive: -0.042,inactive: 0.029,inactive: 0.028,inactive: 0.008,inactive: -0.008
PROSER2 (UniProt Q86WR7),inactive: 0.012,inactive: -0.041,inactive: 0.012,inactive: -0.093,inactive: 0.032,inactive: -0.043,inactive: -0.001,inactive: 0.026,inactive: 0.002,inactive: 0.032
PRKAR1A (UniProt P10644),inactive: 0.017,inactive: -0.1,inactive: -0.023,inactive: 0.027,inactive: 0.086,inactive: -0.001,inactive: 0.033,inactive: -0.025,inactive: 0.111,inactive: 0.011
PRMT9 (UniProt Q6P2P2),inactive: 0.001,inactive: 0.016,inactive: 0.012,inactive: -0.029,inactive: 0.031,inactive: -0.029,inactive: 0.014,inactive: 0.051,inactive: -0.028,inactive: 0.017
PPP1R12A (UniProt O14974),inactive: -0.011,inactive: 0.012,inactive: -0.007,inactive: -0.024,inactive: 0.005,inactive: -0.043,inactive: 0.019,inactive: -0.006,inactive: 0.005,inactive: -0.004
PRCC (UniProt Q92733),inactive: -0.005,inactive: 0.012,inactive: -0.014,inactive: 0.003,inactive: -0.028,inactive: -0.071,inactive: -0.035,inactive: -0.001,inactive: -0.048,inactive: 0.009
PPP1R9A isoform 3 (UniProt Q9ULJ8),inactive: 0.006,inactive: -0.071,inactive: 0.019,inactive: -0.005,inactive: -0.045,inactive: -0.035,inactive: 0.022,inactive: -0.015,inactive: -0.052,inactive: 0.101
PRMT1 (UniProt Q99873),inactive: 0.002,inactive: -0.024,inactive: -0.011,inactive: 0.006,inactive: -0.001,inactive: -0.082,inactive: 0.011,inactive: -0.002,inactive: -0.009,inactive: 0.013
PPP1R12C isoform 4 (UniProt Q9BZL4),inactive: 0.001,inactive: -0.046,inactive: -0.007,inactive: -0.051,inactive: -0.01,inactive: -0.026,inactive: -0.027,inactive: -0.008,inactive: 0.041,inactive: -0.023
PRKACB isoform 2 (UniProt P22694),inactive: -0.076,active: 0.818,inactive: 0.025,inactive: 0.091,inactive: -0.028,inactive: -0.033,inactive: -0.063,active: 0.538,inactive: 0.177,inactive: -0.025
PPP4R1 (UniProt Q8TF05),inactive: -0.015,inactive: -0.005,inactive: -0.041,inactive: -0.021,inactive: -0.017,inactive: -0.018,inactive: 0.012,inactive: 0.032,inactive: 0.009,inactive: 0.001
PRKCB isoform 2 (UniProt P05771),inactive: -0.014,active: 0.256,inactive: -0.06,inactive: -0.093,inactive: -0.007,inactive: 0.017,inactive: -0.038,active: -0.416,inactive: 0.181,inactive: -0.037
PPP4R2 (UniProt Q9NY27),inactive: 0.012,inactive: 0.018,inactive: 0.029,inactive: 0.005,inactive: -0.028,inactive: -0.009,inactive: -0.042,inactive: -0.011,inactive: 0.009,inactive: -0.01
PPL (UniProt O60437),inactive: 0.015,inactive: -0.009,inactive: 0.231,inactive: -0.041,inactive: -1.39,inactive: -1.14,inactive: 0.036,inactive: -0.088,–,–
PPIG (UniProt Q13427),inactive: -0.006,inactive: 0.046,inactive: 0.005,inactive: 0.026,inactive: 0.018,inactive: -0.062,inactive: -0.018,inactive: -0.012,inactive: 0.027,inactive: 0.084
PPIL3 (UniProt Q9H2H8),inactive: 0.121,inactive: 0.023,inactive: -0.049,inactive: 0.176,inactive: -0.032,inactive: 0.017,inactive: -0.028,inactive: -0.025,inactive: -0.054,inactive: -0.051
PPP3CB (UniProt P16298),inactive: -0.017,inactive: 0.053,inactive: 0.045,inactive: 0,inactive: 0,inactive: -0.025,inactive: 0.005,inactive: 0.009,inactive: 0.019,inactive: 0.001
PRKRA (UniProt O75569),inactive: 0,inactive: -0.001,inactive: -0.01,inactive: 0.034,inactive: 0.029,inactive: -0.058,inactive: 0.016,inactive: 0.036,inactive: 0.012,inactive: -0.043
PPP3R1 (UniProt P63098),inactive: 0.012,inactive: -0.006,inactive: -0.022,inactive: 0.04,inactive: -0.004,inactive: 0.028,inactive: 0.017,inactive: -0.04,inactive: 0.006,inactive: 0.011

# 2 entries drawn at random from the list so far, as already listed:
Target,log2 fold change [1],log2 fold change [2],log2 fold change [3],log2 fold change [4],log2 fold change [5],log2 fold change [6],log2 fold change [7],log2 fold change [8],log2 fold change [9],log2 fold change [10]
PRKACB isoform 2 (UniProt P22694),inactive: -0.076,active: 0.818,inactive: 0.025,inactive: 0.091,inactive: -0.028,inactive: -0.033,inactive: -0.063,active: 0.538,inactive: 0.177,inactive: -0.025
PPP1R12C isoform 4 (UniProt Q9BZL4),inactive: 0.001,inactive: -0.046,inactive: -0.007,inactive: -0.051,inactive: -0.01,inactive: -0.026,inactive: -0.027,inactive: -0.008,inactive: 0.041,inactive: -0.023
